Percent effect of library compounds

Sequences of proteins named here, by UniProt entry; tags and fusion partners are left off. Residues count along the entry.
UniProt Q4DA54, 1-478: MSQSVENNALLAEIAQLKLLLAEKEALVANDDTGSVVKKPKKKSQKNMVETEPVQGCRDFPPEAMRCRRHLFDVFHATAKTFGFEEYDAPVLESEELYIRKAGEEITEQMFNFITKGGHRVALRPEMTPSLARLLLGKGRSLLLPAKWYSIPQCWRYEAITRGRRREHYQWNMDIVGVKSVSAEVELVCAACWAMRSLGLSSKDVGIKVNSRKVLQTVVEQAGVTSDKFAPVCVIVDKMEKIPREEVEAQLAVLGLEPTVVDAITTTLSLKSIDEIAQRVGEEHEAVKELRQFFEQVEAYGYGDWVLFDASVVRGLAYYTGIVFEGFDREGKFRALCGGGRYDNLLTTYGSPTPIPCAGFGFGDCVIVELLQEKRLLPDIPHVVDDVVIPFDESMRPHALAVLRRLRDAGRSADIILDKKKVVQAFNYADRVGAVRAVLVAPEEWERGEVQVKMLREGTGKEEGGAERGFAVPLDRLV
UniProt P9WNZ1, whole entry: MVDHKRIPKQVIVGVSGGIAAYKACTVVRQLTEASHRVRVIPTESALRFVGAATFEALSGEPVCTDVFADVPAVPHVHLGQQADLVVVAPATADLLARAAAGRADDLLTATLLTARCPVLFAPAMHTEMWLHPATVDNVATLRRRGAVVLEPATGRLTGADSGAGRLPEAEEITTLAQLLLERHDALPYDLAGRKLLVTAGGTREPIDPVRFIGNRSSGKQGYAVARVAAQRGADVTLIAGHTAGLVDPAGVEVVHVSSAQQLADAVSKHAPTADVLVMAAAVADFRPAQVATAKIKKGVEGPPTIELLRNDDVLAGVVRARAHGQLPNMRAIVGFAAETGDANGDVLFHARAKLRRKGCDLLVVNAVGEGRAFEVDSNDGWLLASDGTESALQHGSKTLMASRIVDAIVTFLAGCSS

Data taken from ChEMBL document CHEMBL3988442, “University of Dundee, Small-Polar-MMV Screening Library” (2021).

TcHisRS: 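Enzyme assay of histidyl-tRNA synthetase; the read-out is not stated. Target: Histidine-tRNA ligase, Trypanosoma cruzi CL Brener (UniProt Q4DA54). Concentration: 30 µM. Higher reads as stronger inhibition (inferred: compounds with an IC50 in retests scored well above the rest). Of about 69,000 compounds tested this way, about 31 (0.045%) reached 50% or more in at least one test.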
CoaBC: 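Coenzyme A biosynthesis protein CoaBC, Mycobacterium tuberculosis (UniProt P9WNZ1). Enzyme assay of CoaBC with a phosphate dye (Biomol Green) read at 650 nm. Concentration: 30 µM. Higher reads as stronger inhibition, judged from the few compounds that gave an IC50. Most strong results did not repeat in a second test. Size under these conditions: about 67,000 compounds, about 40 of them at 50% or above in at least one test.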

Values are the deposited “Percent Effect”, in %. The controls that fix the scale are not given in the record; negative values are as filed. This is an unselected part of the compounds tested.

Compound: Cc1ccccc1N1CCN(C(=O)c2ncc(F)cc2F)C(C)C1 (stereo unspecified)
TcHisRS: 0
CoaBC: 7.143

Compound: O=C(CSCC1CC1)N1CCc2[nH]nc(COc3ccccc3)c2C1
TcHisRS: 16.83
CoaBC: 3.155

Compound: c1cnnc(N2CCCC(NCc3cccc4c3OCCCO4)C2)c1 (stereo unspecified)
TcHisRS: 3.198
CoaBC: -19.21

Compound: c1cc(-c2n[nH]cc2-c2ccnc(N3CCCCCC3)n2)ccn1
TcHisRS: 10.17
CoaBC: 5.663

Compound: COC(=O)N1CCC(Nc2cccc(F)c2C(C)=O)C1 (stereo unspecified)
TcHisRS: 3.191
CoaBC: 6.291

Compound: Cc1n[nH]c(C)c1CC(=O)N1CC[C@@](C)(O)[C@@H](Cc2ccccc2)C1
TcHisRS: 9.827
CoaBC: 2.233

Compound: CCOCC1CN(C(=O)c2ccsc2)Cc2nn(C)cc21 (stereo unspecified)
TcHisRS: 1.961
CoaBC: 11.4

Compound: O=C(c1ccc(Cl)cc1)N1CCn2c(nn(-c3ccc(Cl)cc3)c2=O)C1
TcHisRS: 0.5917
CoaBC: 1.316

Compound: Cc1cc(C(=O)N2CCCC(C)C2)ccc1NCC(=O)N1CCOCC1 (stereo unspecified)
TcHisRS: 5.143
CoaBC: -4.062

Compound: COCc1ncc(-c2nccn2CCN(C)C)cn1
TcHisRS: -1.058
CoaBC: 1.381

Compound: Cc1ccc(C)c(S(=O)(=O)NCCNc2ccc(-n3cccc3)nn2)c1
TcHisRS: 1.031
CoaBC: -1.057

Compound: COc1ccc(CNC[C@H]2Cn3ccnc3CO2)cn1
TcHisRS: 4.348
CoaBC: 9.934

Compound: CC(=O)N1Cc2nccn2CC(CNC(=O)c2ccnnc2)C1 (stereo unspecified)
TcHisRS: -2.454

Compound: O=c1c(-c2ccnc(NC3CCCCC3)n2)cnc2sc(Cl)cn12
TcHisRS: 10.17
CoaBC: 4.699

Compound: CCOCCN1CCN(Cc2csc(-c3cnn(C)c3)n2)CC1
TcHisRS: 0
CoaBC: 4.943

Compound: O=C(c1ccc(O)cn1)N1CCOC(Cc2cccc(C(F)(F)F)c2)C1 (stereo unspecified)
TcHisRS: 1.093
CoaBC: 1.089

Compound: Nc1cc(-c2cccs2)nn(CC(=O)NCC2CCCCC2)c1=O
TcHisRS: 1.498
CoaBC: -22.68

Compound: CCOc1ncnc2c1CCN(C(=O)CN(C)C)CC2
TcHisRS: 7.527
CoaBC: 4.017

The first 2 entries again:

{"compound": "Cc1ccccc1N1CCN(C(=O)c2ncc(F)cc2F)C(C)C1", "stereo": "stereo unspecified", "TcHisRS": 0, "CoaBC": 7.143}
{"compound": "O=C(CSCC1CC1)N1CCc2[nH]nc(COc3ccccc3)c2C1", "TcHisRS": 16.83, "CoaBC": 3.155}